Out of some 310,000 compounds screened, about 18,000 (5.8%) were called active. These results got no clear call from the source, so the numbers are uncertain. Calls come from the whole dose curve; as a rule, active = well fitted inhibition curve with a large enough effect; inconclusive = small, poorly fitted or top-dose-only effect, or another doubt; inactive = no such curve, though single readings can be large or run the other way.
experiment: Primary qHTS for delayed death inhibitors of the malarial parasite plastid, 48 hour incubation; details: P. falciparum luciferase growth in erythrocytes
From the text: The goal of this screen is to discover new antimalarial compounds that act by inhibiting the development of the apicoplast in the malarial parasite Plasmodium falciparum. The biochemical processes that make this organelle essential for erythrocytic stage parasites are not well understood. However, antibiotics such as azithromycin and tetracycline, which target the apicoplast translational machinery, have a potent antimalarial effect.
We have developed a cell-based assay that measures parasite growth based on the expression of an integrated copy of a firefly luciferase reporter. To detect small molecules that cause this "delayed death" phenotype, erythrocytes infected with the luciferase-expressing parasites were incubated with compounds for either one or two generations, corresponding to 48 and 96 hours, respectively. Compounds that inhibit parasite growth in the second generation, but not the first, should be enriched in antimalarials that target the apicoplast. Growth inhibition is detected by a decrease in luciferase activity.
Assay Provider: David Fidock and Eric Ekland, Columbia University
Keywords: NIH Roadmap, MLPCN, MLI, MLSMR, qHTS, NCGC, qHTS, malaria, luciferase, viability
Four microliters of culture medium (RPMI 1640 with 0.5% w/v Albumax (GIBCO), 24 mM sodium bicarbonate and 10 ug/mL gentamycin) were dispensed by a Multi-drop Combi into white solid 1536-well plates (Grenier) and 23 nL compound was added by a pin tool. Four microliters of infected erythrocytes (2% hematocrit, 0.1% parasitemia final concentration) in culture medium were dispensed and the plates incubated for 48 hours at 37 C in 5% CO2. Two microliters of luciferase detection reagent was added and luminescence was detected by a ViewLux (PerkinElmer) reader.
Potency is the fitted concentration of half-maximal effect.

SMILES	Potency
O=C(NCC1(N2CCCCC2)CCCCC1)c1cncc(Br)c1	inconclusive: 14.7 µM
CSc1ccc(C(=O)NCC2(N3CCOCC3)CCCCC2)cc1	inconclusive: 18.5 µM
N#CC1(Nc2ccccc2)CCN(CCc2ccccc2)CC1	inconclusive: 0.0329 µM
O=C(NCC1(N2CCCCC2)CCCCC1)c1ccc(OC(F)F)cc1	inconclusive: 18.5 µM
CC(C)c1ccc(C(=O)NCC2(N3CCOCC3)CCCCC2)cc1	inconclusive: 11.7 µM
O=C(NCC1(N2CCCCC2)CCCCC1)c1cccc(C(F)(F)F)c1	inconclusive: 8.28 µM
CSc1ccccc1C(=O)NCC1(N2CCCCC2)CCCCC1	inconclusive: 16.5 µM
CC(C)(C)OC(=O)N1CCC(N(C(=O)c2ccccc2)c2ccc(F)cc2)CC1	inconclusive: 9.28 µM
COc1ccc(Cl)cc1C(=O)NCC1(N2CCOCC2)CCCCC1	inconclusive: 6.57 µM
CC(C)(C)OC(=O)N1CCC(Nc2ccccc2)CC1	inconclusive: 0.465 µM
O=C(NCC1(N2CCOCC2)CCCCC1)c1cc(Br)ccc1Cl	inconclusive: 11.7 µM
CCc1cc(C(=O)NCC2(N3CCCCC3)CCCCC2)sc1C	inconclusive: 14.7 µM

Reference: PubChem BioAssay AID504832 (National Center for Advancing Translational Sciences (NCATS), 2011)
